Patent US20240392013A1, “IL1RAP ANTIBODIES AND USES THEREOF” (STELEXIS THERAPEUTICS, LLC, priority 2021, published 2024)
These are yes or no findings as the source states them, for the method shown. Some entries that bind do so weakly or less than the wild type.

Protein sequences, listed by entry. Tags and fused reporters are not part of them. Lines headed by an entry give the natural chain unless they say otherwise; changes in a name come on top. Residues count along the entry.
UniProt Q9NPH3, residues 21-367: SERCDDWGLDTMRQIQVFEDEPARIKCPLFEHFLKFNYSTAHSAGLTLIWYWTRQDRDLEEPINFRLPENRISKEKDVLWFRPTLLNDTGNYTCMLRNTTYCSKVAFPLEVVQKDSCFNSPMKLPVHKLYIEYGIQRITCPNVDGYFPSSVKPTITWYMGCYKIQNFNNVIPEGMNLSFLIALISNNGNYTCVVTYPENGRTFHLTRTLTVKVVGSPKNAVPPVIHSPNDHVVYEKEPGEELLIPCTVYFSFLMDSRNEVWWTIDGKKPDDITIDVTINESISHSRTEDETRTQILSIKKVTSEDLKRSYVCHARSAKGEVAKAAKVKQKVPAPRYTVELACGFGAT

B1: STLX2025 (antibody, V domains shown)
VH: QVQLVQSGAEVKKPGSSVKVSCKASGDTFSNYAITWVRQAPGQGLEWIVGFSPIFGTANYAQKFQGRVTITADKSTSTAYMELSSLISEDTAVYYCAWGSGNFNWFDPWGQGTLVTVSS
VL: AIRMTQSPSSFSASTGDRVTITCRASQGISSYLAWYQQKPGKAPKLLIYAASTLQSGVPSRFSGSGSGTDFTLTISSLQSEDFATYYCQQYYSYPLTFGGGTKVEIK
B2: STLX2045 (antibody, V domains shown)
VH: EVQLVESGGGLVKPGGSLRLACAATGFTFSNVWMSWVRQGSGKGLEWVGRIKSKADGGTIDYAAPVKGRFTISRDDSKNTLYLQMNSLKTEDTAMYYCTTGELLGFDYWGQGTLVTVSS
VL: DIVMTQSPLSLPVTPGEPASISCRSGQSLLHSNGFNCLAWYLQKPGQSPQLLIYLGSNRASGVPDRFSGSGSGTDFTLKISRVEAEDVGVYYCMQTLQTPITFGQGTRLEIK

Target: recombinant human IL1RAP protein, extracellular domain His-tagged (Sino Biological, Cat #10121-H08H) (human) (UniProt Q9NPH3)
Assay: summary of Example 1 (ELISA, Octet)

Row | Binder | binding
1 | B1 | binds
2 | B2 | binds
